Reference: PubChem BioAssay AID504834 (National Center for Advancing Translational Sciences (NCATS), 2011)
The whole screen tested about 320,000 compounds, of which about 22,000 (6.9%) were called active. Inconclusive means that the source gave no clear call. Such entries were picked first, then a sample of the others. Calls follow the shape of the dose curve; as a rule, active = well fitted inhibition curve with a large enough effect; inconclusive = small, poorly fitted or top-dose-only effect, or another doubt; inactive = no such curve, though single readings can be large or run the other way. Where the call is inconclusive, the potency comes from a doubtful curve fit.

Test: Primary qHTS for delayed death inhibitors of the malarial parasite plastid, 96 hour incubation
Conditions: P. falciparum luciferase reporter growth; series mostly up to 28.7 µM
Method in brief: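 P. falciparum expressing integrated firefly luciferase, in erythrocytes at 2% hematocrit, 0.05% parasitemia, incubated with compounds 96 h at 37 C, 5% CO2. Growth inhibition read as loss of luminescence; two-generation exposure targets delayed-death apicoplast inhibitors.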
Potency is read from the fitted curve at half-maximal effect.

Q: With `C/C=C(/C)C(=O)Nc1cccc(C2=NOC3(C2)C[C@H](C(N)=O)N(C(=O)c2ccccc2)C3)c1` (stereo partly specified) as the molecule, how does the Potency read?
A: Its Potency is inconclusive: 11.7 µM [inhibitor, single point].

Q: For `Cc1ccc(-n2c(SCC(=O)NCc3ccco3)nnc2-c2cccnc2)cc1`, which Potency is on record?
A: The Potency was “inactive”.

Q: For `CC(C)N(CCO)C(=O)CCc1nnc(CCCc2ccccc2)o1`, which Potency is on record?
A: The Potency was “inactive”.

Q: With `CC(=O)c1cccc(S(=O)(=O)N2CCN(CCOc3ccccc3)CC2)c1` as the molecule, how does the Potency read?
A: The Potency was “inactive”.

Q: With `Cc1ccc(N(Cc2ccco2)C(=O)c2ccc(N3CCCCC3)c([N+](=O)[O-])c2)cc1` as the molecule, how does the Potency read?
A: Its Potency is active: 11.7 µM.

Q: With `O=C(NC1CCN(Cc2ccccc2)CC1)C1CCN(S(=O)(=O)c2cccc3cccnc23)CC1` as the molecule, how does the Potency read?
A: Its Potency is inconclusive: 18.5 µM [inhibitor, single point].

Q: Which Potency does the source give for `CSCCC(NC(=O)c1ccco1)C(=O)NCC(c1ccco1)N1CCCCC1` (stereo unspecified) here?
A: Its Potency is inconclusive: 11.7 µM [inhibitor, partial curve, poor fit].

Q: With `CC(C)c1csc(CN2CCN(Cc3ccccc3)C(CCO)C2)n1` (stereo unspecified) as the molecule, how does the Potency read?
A: Its Potency is inconclusive: 18.5 µM [inhibitor, single point].

Q: With `Cc1ccsc1/C=N/n1cnnc1` as the molecule, how does the Potency read?
A: Its Potency is “inactive”.

Q: Which Potency does the source give for `COc1cc(/C=N/Nc2nncn2N)ccc1OCc1c(C)no[n+]1[O-]` here?
A: Its Potency is inconclusive: 14.7 µM [inhibitor, single point].

Q: With `Nc1ccc2nc(-c3ccccc3)c(-c3ccccc3)nc2c1` as the molecule, how does the Potency read?
A: Its Potency is inconclusive: 18.5 µM [inhibitor, single point].

Q: With `CCC(NC(=O)c1cc(COc2ccc(OC)cc2Cl)on1)c1ccncc1` (stereo unspecified) as the molecule, how does the Potency read?
A: The Potency was inconclusive: 18.5 µM [inhibitor, single point].

Q: For `CC(=O)OC(C(=O)NC1CCCCC1)c1ccccc1Cl` (stereo unspecified), which Potency is on record?
A: The Potency was “inactive”.

Q: For `Cc1ccc(C(=O)C(OC(=O)c2cnccn2)c2ccccc2)cc1` (stereo unspecified), which Potency is on record?
A: The Potency was inconclusive: 0.0041 µM [inhibitor, full curve].

Q: For `O=c1c2ccccc2c(-c2ccccc2)nn1-c1cc(Cl)ccc1[N+](=O)[O-]`, which Potency is on record?
A: The Potency was inconclusive: 13.1 µM [inhibitor, single point].

Q: For `Cc1ccc(C(C(=O)NC2CCCCC2)N(CCC(C)C)C(=O)CNC(=O)c2ccco2)o1` (stereo unspecified), which Potency is on record?
A: The Potency was inconclusive: 14.7 µM [inhibitor, partial curve, poor fit].

Q: For `O=C(COC(=O)COc1ccccc1Cc1ccccc1)Nc1cccnc1Cl`, which Potency is on record?
A: The Potency was “inactive”.

Q: For `Cc1ccc(C(=O)N2CCOCC2)cc1S(=O)(=O)Nc1cccc(C)c1C`, which Potency is on record?
A: Its Potency is inconclusive: 1.04 µM [inhibitor, full curve].

Q: Which Potency does the source give for `COc1ccc(C(=O)NC2CCCCCC2)cc1S(=O)(=O)N1CCCc2ccccc21` here?
A: Its Potency is active: 10.4 µM.

Q: With `CCCOC(=O)c1[nH]c2c(c1C)C(=O)CC(c1cc(OC)c(OC)c(OC)c1)C2` (stereo unspecified) as the molecule, how does the Potency read?
A: Its Potency is active: 11.7 µM.

Q: With `COc1ccccc1NC(=S)NCC1CCCO1` (stereo unspecified) as the molecule, how does the Potency read?
A: Its Potency is inconclusive: 6.57 µM [inhibitor, single point].

Q: Which Potency does the source give for `CC(=C/c1ccccc1)/C=N/NC(=O)c1ccc2nc[nH]c2c1` here?
A: Its Potency is inconclusive: 9.28 µM [inhibitor, partial curve, poor fit].

Q: Which Potency does the source give for `O=C(CN(CCc1ccccc1)C(=O)CNS(=O)(=O)c1ccccc1)NCC1CCCO1` (stereo unspecified) here?
A: Its Potency is inconclusive: 0.415 µM [inhibitor, full curve, poor fit].

Q: With `O=S(=O)(NCc1ccccc1)c1ccccc1Br` as the molecule, how does the Potency read?
A: The Potency was “inactive”.

Q: With `C/C(=N\NC(=O)COc1ccccc1-c1ccccc1)c1ccccn1` as the molecule, how does the Potency read?
A: The Potency was inconclusive: 0.928 µM [inhibitor, full curve].

Q: For `Cc1cc(NC(=O)CSc2[nH]c(=O)cc(C(F)(F)F)c2C#N)no1`, which Potency is on record?
A: Its Potency is inconclusive: 11.7 µM [inhibitor, single point].

Q: For `O=C1C(Cl)=C(N2CCCCC2)C(=O)C(Cl)=C1c1cnc(N2CCCCC2)s1`, which Potency is on record?
A: Its Potency is “inactive”.

Q: With `Cc1onc(-c2c(Cl)cccc2Cl)c1/C(N)=N/OC(=O)C1CC1` as the molecule, how does the Potency read?
A: The Potency was inconclusive: 18.5 µM [inhibitor, single point].

Q: For `CCCCCOC(=O)CSc1nnc(-c2ccccc2)c(=O)[nH]1`, which Potency is on record?
A: Its Potency is inconclusive: 0.185 µM [inhibitor, full curve, poor fit].

Q: For `COc1ccc(CN2C(=O)c3cccnc3C2=O)cc1S(=O)(=O)N1CC(C)Oc2ccccc21` (stereo unspecified), which Potency is on record?
A: Its Potency is inconclusive: 13.1 µM [inhibitor, single point].

Q: For `COc1cc(C(=O)NCc2ncccc2C)ccc1OC1CCN(C(C)=O)CC1`, which Potency is on record?
A: Its Potency is active: 14.7 µM.

Q: Which Potency does the source give for `Cc1ccc(S(=O)(=O)Nc2ccc3[nH]c(=O)[nH]c3c2)c(C)c1` here?
A: Its Potency is inconclusive: 2.62 µM [inhibitor, full curve, poor fit].

Q: With `CCOC(=O)CCCC(=O)N1CCOCCOCCN(C(=O)CCCC(=O)OCC)CCOCCOCC1` as the molecule, how does the Potency read?
A: The Potency was inconclusive: 18.5 µM [inhibitor, single point].

Q: For `Cc1cc([N+](=O)[O-])ccc1NC(=O)Nc1ccccc1F`, which Potency is on record?
A: The Potency was “inactive”.

Q: For `COCCn1c(C)cc(/C=C(\C#N)C(=O)OC(C)C(=O)Nc2ccc(NC(C)=O)cc2)c1C` (stereo unspecified), which Potency is on record?
A: Its Potency is “inactive”.

Q: Which Potency does the source give for `CC(C)(C)NC(=O)C(OC(=O)c1ccco1)c1ccccc1F` (stereo unspecified) here?
A: The Potency was inconclusive: 2.62 µM [inhibitor, partial curve, poor fit].

Q: Which Potency does the source give for `CCc1ccc(OCC(=O)N2CCN(c3ccccn3)CC2)c(Br)c1` here?
A: Its Potency is “inactive”.

Q: For `Cc1ccccc1-c1nc(SCc2cccnc2)c2c(=O)n(C)c(=O)n(C)c2n1`, which Potency is on record?
A: The Potency was “inactive”.

Q: For `O=C(CCCCCN1C(=O)c2ccccc2C1=O)Nc1cccc(O)c1`, which Potency is on record?
A: The Potency was inconclusive: 18.5 µM [inhibitor, single point].

Q: With `CN1CCN(Cc2nc3ccccc3c(=O)n2Cc2nc(-c3ccc4ccccc4c3)cs2)CC1` as the molecule, how does the Potency read?
A: The Potency was inconclusive: 4.15 µM [inhibitor, partial curve, poor fit].

Q: With `CNC(=S)N(CCc1c(C)[nH]c2ccccc12)Cc1cc(OC)c(OC)c(OC)c1` as the molecule, how does the Potency read?
A: The Potency was inconclusive: 11.7 µM [inhibitor, partial curve, poor fit].

Q: For `Cc1ccc2oc(C(Cl)(Cl)Cl)cc(=O)c2c1`, which Potency is on record?
A: Its Potency is active: 1.85 µM.

Q: With `OC(CNC1CCCC1)COc1ccc(Cl)cc1` (stereo unspecified) as the molecule, how does the Potency read?
A: Its Potency is “inactive”.

Q: Which Potency does the source give for `C=CCN1C(=O)/C(=C/C=C2/N(CC)c3ccc(S(=O)(=O)N(C)C)cc3N2CC)SC1=S` here?
A: Its Potency is “inactive”.

Q: With `Cc1ccc(C)c(S(=O)(=O)N2CCCCC2CCNC(=O)C(=O)NCc2ccncc2)c1` (stereo unspecified) as the molecule, how does the Potency read?
A: The Potency was inconclusive: 5.86 µM [inhibitor, partial curve, poor fit].

Q: For `CC(C)CN(C(=O)COC(=O)CCc1nc2ccccc2s1)c1c(N)n(Cc2ccccc2)c(=O)[nH]c1=O`, which Potency is on record?
A: Its Potency is “inactive”.

Q: For `C/C(=N\NC(=O)c1cccc(S(=O)(=O)N2CCOCC2)c1)c1ccc(O)cc1`, which Potency is on record?
A: The Potency was active: 0.586 µM.

Q: With `Cc1ccc(NC(=O)c2ccc3c(c2)nnn3C)cc1` as the molecule, how does the Potency read?
A: The Potency was “inactive”.

Q: With `CCN(CC)S(=O)(=O)c1cccc(NC(=O)CN2C(=O)NC3(CCOc4ccccc43)C2=O)c1` (stereo unspecified) as the molecule, how does the Potency read?
A: The Potency was inconclusive: 11.7 µM [inhibitor, single point].

Q: For `COc1cc(NC(=O)c2ccc3c(c2)OCO3)ccc1NC(=O)c1ccco1`, which Potency is on record?
A: The Potency was “inactive”.

Q: Which Potency does the source give for `CCCC(C)C(=O)Nc1ncc(S(=O)(=O)c2ccc([N+](=O)[O-])cc2)s1` (stereo unspecified) here?
A: The Potency was inconclusive: 18.5 µM [inhibitor, single point].

Q: Which Potency does the source give for `COc1cccc(CN2CCC(Oc3ccc(C(=O)N4CCCCC4)cc3)CC2)c1` here?
A: Its Potency is inconclusive: 2.62 µM [inhibitor, partial curve, poor fit].

Q: Which Potency does the source give for `Cc1cccc(NS(=O)(=O)c2ccc3[nH]c(=O)cc(C(=O)O)c3c2)c1` here?
A: Its Potency is inconclusive: 18.5 µM [inhibitor, single point].

Q: With `CCCc1cc(C(=O)NCc2cccs2)no1` as the molecule, how does the Potency read?
A: Its Potency is inconclusive: 18.5 µM [inhibitor, single point].

Q: With `CCOc1cc(C#N)ccc1OCC(=O)N1CCN(C(=O)c2cccs2)CC1` as the molecule, how does the Potency read?
A: The Potency was “inactive”.

Q: Which Potency does the source give for `CN(CC(=O)Nc1ccc(Cl)c(S(=O)(=O)N2CCOCC2)c1)C(=O)c1cccs1` here?
A: The Potency was inconclusive: 18.5 µM [inhibitor, partial curve, poor fit].

Q: With `O=C(NCc1cccs1)C1CCCN(c2nc3ccccc3o2)C1` (stereo unspecified) as the molecule, how does the Potency read?
A: The Potency was active: 5.22 µM.

Q: For `O=C(CSc1nc2ccccc2[nH]1)N/N=C/c1ccco1`, which Potency is on record?
A: Its Potency is “inactive”.

Q: For `CCOc1ccc(CN2CCCC(CNC(=O)c3ccc(F)cc3)C2)cc1CO` (stereo unspecified), which Potency is on record?
A: Its Potency is “inactive”.

Q: For `CCOC(=O)C1CCCN(C(=O)c2ccc3nc(-c4cccc(OC)c4)oc3c2)C1` (stereo unspecified), which Potency is on record?
A: The Potency was inconclusive: 11.7 µM [inhibitor, single point].

Q: For `COc1ccc(C(=O)NC2CC3CCCC(C2)N3Cc2ccccc2)cc1OC` (stereo unspecified), which Potency is on record?
A: Its Potency is “inactive”.

Q: Which Potency does the source give for `O=C(Nc1cccc(-c2nn[nH]n2)c1)c1ccc(Cl)s1` here?
A: The Potency was inconclusive: 13.1 µM [inhibitor, partial curve, poor fit].

Q: With `O=C(c1ccccc1Cl)N1N=C(c2cccs2)CC1c1cccc(O)c1` (stereo unspecified) as the molecule, how does the Potency read?
A: Its Potency is inconclusive: 18.5 µM [inhibitor, single point].

Q: With `COc1cc(S(=O)(=O)NC2CCCCC2)ccc1Cl` as the molecule, how does the Potency read?
A: The Potency was inconclusive: 7.38 µM [inhibitor, partial curve, poor fit].

Q: Which Potency does the source give for `O=C1CC(=O)Nc2cc(S(=O)(=O)Nc3ccc(F)cc3Cl)ccc2N1` here?
A: Its Potency is inconclusive: 2.33 µM [inhibitor, full curve].

Q: For `O=C(NCc1cccc(F)c1)C1CCC(=O)N(C2CC2)C1` (stereo unspecified), which Potency is on record?
A: The Potency was “inactive”.

Q: Which Potency does the source give for `OC(c1ccccc1)c1ccncc1` (stereo unspecified) here?
A: Its Potency is “inactive”.

Q: For `Cc1ccc(NC(=S)Nc2ccc(Br)cc2)cc1`, which Potency is on record?
A: The Potency was inconclusive: 0.0828 µM [inhibitor, full curve, poor fit].

Q: With `COc1ccc(NC(=O)CN(C)CC(=O)Nc2cccc(C(C)=O)c2)cc1` as the molecule, how does the Potency read?
A: The Potency was “inactive”.

Q: For `CCN1CCN(c2cc(C)c3cc(NC(=O)CCC(=O)Nc4ccc(OC)c(OC)c4)ccc3n2)CC1`, which Potency is on record?
A: Its Potency is “inactive”.

Q: For `O=C1CC(N2CCN(C/C=C/c3ccccc3)CC2)C(=O)N1Cc1ccc(N2CCCC2=O)cc1` (stereo unspecified), which Potency is on record?
A: The Potency was inconclusive: 3.7 µM [inhibitor, partial curve, poor fit].
